Laboratory results reported in patent US12441768B2, “Compositions and methods for treating endometriosis” (EndoMet Biosciences, Inc., priority 2018, dated 2025).
Changes are numbered by the printed parent chain. Several values for one entry are separate records, joined by “and”; a condition that tells them apart may be missing. Equal entries are not always repeated. Not every detail of the peptide structures is certain; ends, links or a residue may be inferred.

Legend:
β-catenin [1] = molecular target: T1, β-catenin (Homo sapiens, UniProt P35222); assay: KD50 measurement using competitive fluorescence polarization (FP) with labelled TCF4; type: binding
T1 sequence (P35222 1-781): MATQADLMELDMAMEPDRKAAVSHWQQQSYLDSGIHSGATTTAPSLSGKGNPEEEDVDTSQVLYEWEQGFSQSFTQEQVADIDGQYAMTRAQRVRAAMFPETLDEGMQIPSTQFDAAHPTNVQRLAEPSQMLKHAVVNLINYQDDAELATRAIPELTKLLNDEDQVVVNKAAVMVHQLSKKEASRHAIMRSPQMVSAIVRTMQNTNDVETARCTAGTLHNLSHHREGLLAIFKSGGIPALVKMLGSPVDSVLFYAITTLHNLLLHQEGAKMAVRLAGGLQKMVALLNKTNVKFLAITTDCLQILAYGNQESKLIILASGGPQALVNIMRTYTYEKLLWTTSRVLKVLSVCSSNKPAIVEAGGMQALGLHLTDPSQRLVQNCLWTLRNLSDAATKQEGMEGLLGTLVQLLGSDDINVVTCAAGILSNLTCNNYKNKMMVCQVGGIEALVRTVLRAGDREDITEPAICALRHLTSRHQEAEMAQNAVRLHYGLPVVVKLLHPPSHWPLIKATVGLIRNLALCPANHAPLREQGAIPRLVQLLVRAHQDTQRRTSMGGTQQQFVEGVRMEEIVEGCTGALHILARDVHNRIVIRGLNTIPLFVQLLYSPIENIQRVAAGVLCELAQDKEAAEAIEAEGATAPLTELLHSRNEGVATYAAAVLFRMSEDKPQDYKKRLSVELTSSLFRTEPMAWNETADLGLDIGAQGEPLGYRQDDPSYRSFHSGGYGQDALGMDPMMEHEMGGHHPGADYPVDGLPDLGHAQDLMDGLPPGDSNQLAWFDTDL
Summary of the method: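 Each compound competes against labelled TCF4 (5 nM) for 100 nM β-catenin at room temperature, tested over 10 nM to 30 uM. Signal: polarization at 470/520 nm excitation/emission. Three repeat experiments were performed.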

β-catenin [2] = molecular target: T2, β-catenin (Mus musculus, UniProt Q02248); assay: Immunohistochemistry of β-catenin localization in lesions, area thresholding; type: in vivo; details: IP daily for 3 weeks
T2 construct: from tissue; host or cells: endometriosis lesions of the mouse model
T2 sequence (Q02248 1-781): T1 sequence (P35222 1-781) with P706A
Experimental: Endometriosis was established in a mouse model of disease. Mice were allowed to establish endometriosis for 3 weeks. After the first 3 weeks, mice were then intraperitoneally treated daily for 3 weeks with the therapeutic peptides corresponding to SEQ ID NOs: 215 or 393 or untreated negative control. To assess the localization of the peptides and β-catenin, lesions from the endometriosis mouse model were assessed. On the last day of treatment, in order to visualize the peptide localization to the lesion(s), mice were dosed with a biotinylated tagged peptide therapeutic or control. Mice were euthanized, lesions were removed, and fixed in formalin for histology and immunohistochemistry. Fixed and sectioned lesions were incubated with antibodies specific for β-catenin (Cell Signaling, 1:100, Secondary: Fisher Scientific, Goat anti-Rabbit-647 1:200), streptavidin for biotinylated-therapeutic (Fisher Scientific, SA-405 1:100), and Sytox green for nucleus (Fisher Scientific, 1:300). Immunohistochemical negative controls were performed on lesion sections from all treatment groups using IgG non-specific antibodies (Rabbit-IgG, AbCam 1:100).
Quantification of β-catenin localization was performed using the Zeiss Blue Software via thresholding. Thresholding allows the software to calculate the area of staining using pixel intensity; therefore, a quantitative number for staining can be extrapolated for the different cellular compartments (See Table 6).

CCCCCCCCCCCCCCCCCC(=O)N[C@@H](Cc1c[nH]c2ccccc12)C(=O)N(C)[C@@H](Cc1c[nH]c2ccccc12)C(=O)N[C@@H](CCC(=O)O)C(=O)NC(C)(CO)C(=O)N[C@H](C(=O)N[C@@H](CC(C)C)C(=O)N[C@@H](CC(=O)O)C(=O)N[C@@H](CCC(=O)O)C(=O)N[C@@H](Cc1c[nH]cn1)C(=O)NC(C)(C(=O)N[C@@H](CCC(N)=O)C(=O)N[C@@H](CCCNC(=N)N)C(=O)N[C@H](C(=O)N[C@@H](Cc1c[nH]c2ccccc12)C(=O)O)C(C)C)C(C)C)[C@@H](C)CC (single isomer, unassigned) [SEQ ID NO: 393/500, Stearyl-W-NmeW-E-aMeS-ILDEH-aMeV-QRVW-COOH]
β-Cat FP Hill slope (β-catenin [1]): 0.4 | % membrane bound β-catenin (staining area threshold), Average (β-catenin [2]; average of lesion samples): 24.4% | % nuclear β-catenin (staining area threshold), Average (β-catenin [2]; average of lesion samples): 0.5% | % nuclear β-catenin (staining area threshold) (β-catenin [2]; single lesion sample, listed as Peptide 4): 1.2% and 0.2% and 0.6% and 0.4% and 0.7%
